Source: PubChem BioAssay AID2685 (National Center for Advancing Translational Sciences (NCATS), 2010)
The list shows a part of the results. These are further read-outs of the screen, such as a control signal, another cell line or another target. No call is given for them. Most of these compounds were active or inconclusive in the main read-out, so they are no random draw. Potencies come from curve fits of mixed quality, noted in brackets.

Test: qHTS Assay for Lipid Storage Modulators in Drosophila S3 Cells;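 for cell number change: cells counted by Cell Tracker Red CMTPX staining in the red channel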
Conditions: BODIPY lipid droplet fluorescence, 18-24 h; for cell number change: measured here: cell count max response, cells fed with added oleic acid
How it was run: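 Drosophila S3 cells loaded with oleic acid (400 uM, as added) and compounds at several concentrations; lipid droplets imaged by 488-nm laser-scanning cytometry, 500–530 nm intensity and object ratio to cell channel. Percent activity normalized to 20 uM Triacsin C.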

[1] = measured here: lipid fluorescence (Fed channel) AC50, cells fed with added oleic acid
[2] = measured here: cell number channel AC50, cells fed with added oleic acid

Compound | cell number change [%] | AC50 [1] | AC50 [2]
Cc1noc(C)c1COC(=O)C1CCN(S(=O)(=O)c2ccc(F)cc2)CC1 | 9.68 | 6.51 µM [rising, single point] | –
Clc1ccc(OCCCc2nc(-c3ccncc3)no2)c(Cl)c1 | -17.7 | – | –
COc1ccc2c(c1)OC[C@H]1[C@H]2N2C(=O)CN(C)C(=O)[C@@]2(C)[C@H]1c1ccccc1 | -9.83 | 0.00461 µM [rising, full curve, poor fit] | –
Cc1nnc(SCC(=O)NC2CCCCC2)s1 | -19.3 | 29.1 µM [falling, single point] | 3.26 µM [falling, full curve, poor fit]
Cn1c(=S)c2[nH]c(SCCN3CCCC3)nc2n(C)c1=O | 24.6 | – | –
O=C(Nc1ccc(Cl)cc1)/C(=C/c1cccc(O)c1)c1nc2ccccc2s1 | -28.6 | 4.11 µM [falling, partial curve, poor fit] | –
COc1cccc(OC)c1C(=O)NC(=O)Oc1c(F)cccc1F | 23.5 | 29.1 µM [rising, single point] | –
Cc1ccc(NC(=O)C(c2ccc(Cl)cc2)N2CCOCC2)cc1 (configuration not stated) | 6.5 | 0.651 µM [falling, single point] | 0.651 µM [falling, single point]
CS(=O)(=O)N(CC(=O)N1CCN(Cc2ccccc2)CC1)c1ccc(F)cc1 | 16 | 0.411 µM [rising, partial curve, poor fit] | –
CC(=O)N(C)c1ccc(NC(=O)Nc2ccccc2C)cc1 | 4.52 | 6.51 µM [rising, partial curve, poor fit] | –
CCn1c(SCC(=O)Nc2ccc(F)cc2F)nc2c(c1=O)SCC2 | 25.5 | 29.1 µM [rising, single point] | 0.00651 µM [rising, full curve, poor fit]
CC(=O)Oc1ccc(N2C(=O)c3cccc4c([N+](=O)[O-])ccc(c34)C2=O)cc1 | -12.6 | 13 µM [falling, partial curve, poor fit] | –
CCc1c(O)nc(SCC(=O)Nc2nc3ccccc3s2)n(-c2ccc(C)cc2)c1=O | -1.69 | 6.51 µM [falling, single point] | –
O=C(Cn1c2ccccc2c(=O)c2ccccc21)N/N=C/c1ccc(N2CCCC2)c([N+](=O)[O-])c1 | -25.7 | 29.1 µM [falling, single point] | –
COc1ccc(CCNC(=O)CNCC2CCCO2)cc1OC (configuration not stated) | 47.6 | – | 14.6 µM [rising, partial curve]
O=C1c2ccccc2C(=O)N1CCC(c1ccccc1)c1ccco1 (configuration not stated) | 55.2 | – | 29.1 µM [rising, single point]
COc1cc(OC)cc(C(=O)Nc2ccc(S(=O)(=O)N(C)C)cc2)c1 | 22.2 | 29.1 µM [rising, single point] | –
O=C(Nc1ccc(OC(F)(F)F)cc1)c1cccc(-n2cnnn2)c1 | – | – | 2.91 µM [rising, single point]
NC(=O)COc1ccc(NS(=O)(=O)Cc2ccccc2)cc1 | -19.7 | 6.51 µM [rising, single point] | –
CCCc1nnc(SCC(=O)Nc2ccccc2Cl)n1CC1CCCO1 (configuration not stated) | 5.88 | 0.411 µM [rising, full curve] | –

Compound | cell number change [%] | AC50 [1] | AC50 [2]
Cc1ccc(NC(=O)[C@H](NC(=O)[C@@H]2Cc3ccccc3CN2)c2ccccc2)cc1 | -4.18 | 3.66 µM [rising, full curve] | –
Cc1ccc(SCC(=O)Nc2cccc(NC(=O)c3ccco3)c2)cc1 | -7.96 | 16.4 µM [rising, single point] | –
CCOC(=O)N1CCC(NC(=O)c2ccc3snnc3c2)CC1 | – | – | 3.26 µM [rising, partial curve, poor fit]
NC(=O)CCCn1c(C(=O)c2cc(Cl)c(N)c(Cl)c2)c2ccc([N+](=O)[O-])cc2[n+]1[O-] | – | 29.1 µM [rising, single point] | –
CCCOC(=O)c1c(NC(=O)CSc2nc(-c3ccco3)cc(C(F)(F)F)n2)sc(C(=O)OC)c1C | 49 | 0.13 µM [rising, full curve, poor fit] | 0.092 µM [rising, full curve]
CC(C)(C)NC(=O)Cn1nnc(-c2ccc(OCc3c(F)cccc3Cl)cc2)n1 | – | – | 0.731 µM [falling, partial curve, poor fit]
O=C(c1ccc(Br)c([N+](=O)[O-])c1)N1CCN(Cc2ccccc2)CC1 | -20.8 | 29.1 µM [falling, single point] | –
CN1c2ccccc2C(O)=C(C(=S)Nc2ccc(Cl)cc2)S1(=O)=O | -46.6 | 29.1 µM [falling, single point] | 23.1 µM [falling, single point]
COc1ccc(-c2nnc(SCC(=O)Nc3cc(C)on3)n2C)cc1OC | – | – | 3.26 µM [rising, partial curve, poor fit]
O=C(Cn1[nH]c(=O)c2ccccc2c1=O)OCC(=O)N1CCc2ccccc2C1 | 8.3 | – | –
O=c1c(CN2CCN(Cc3ccccc3F)C(CCO)C2)coc2ccccc12 (configuration not stated) | 3.37 | 0.164 µM [rising, full curve, poor fit] | –
Cc1ccccc1S(=O)(=O)c1cc2ccccc2nc1N | – | 0.794 µM [rising, single point] | –
CCOc1ccc(CCNC(=O)c2cccc3c2C(=O)N(CCOC)C3)cc1OCC | 39 | 29.1 µM [rising, single point] | –
CSc1ccc(NC(=O)N2CCC(C(=O)c3ccc(F)cc3)CC2)cc1 | 17.5 | 1.16 µM [falling, single point] | –
COc1ccc(/C=C2\Oc3cc(OCC(=O)N4CCC(C(=O)O)CC4)ccc3C2=O)c(OC)c1 | -8.74 | – | –
CCN(C(=O)CCN1C(=O)S/C(=C\c2ccccc2)C1=O)C1CCS(=O)(=O)C1 (configuration not stated) | 4.58 | 1.84 µM [rising, partial curve] | –
COc1ccc(NC(=O)CCCC(=O)NCCc2ccc(OC)c(OC)c2)cc1 | -2.1 | 16.4 µM [falling, single point] | –
COc1ccc(-c2nsc3c(N4CCCC4)ncnc23)cc1 | -1.35 | 0.82 µM [rising, full curve] | –
Cc1ccc2c(c1)N(CC(=O)N1CCCCC1C)C(=O)CO2 (configuration not stated) | -21.8 | 0.116 µM [rising, single point] | –
Cc1ccc(NC(=S)NNC(=O)c2nnn(-c3ccccc3)c2C)cc1 | 13.8 | 0.58 µM [rising, single point] | –

Pulled by compound from the list above (four):
Compound | cell number change [%] | AC50 [1] | AC50 [2]
O=c1c(CN2CCN(Cc3ccccc3F)C(CCO)C2)coc2ccccc12 (configuration not stated) | 3.37 | 0.164 µM [rising, full curve, poor fit] | –
CC(C)(C)NC(=O)Cn1nnc(-c2ccc(OCc3c(F)cccc3Cl)cc2)n1 | – | – | 0.731 µM [falling, partial curve, poor fit]
CN1c2ccccc2C(O)=C(C(=S)Nc2ccc(Cl)cc2)S1(=O)=O | -46.6 | 29.1 µM [falling, single point] | 23.1 µM [falling, single point]
Cc1ccc(SCC(=O)Nc2cccc(NC(=O)c3ccco3)c2)cc1 | -7.96 | 16.4 µM [rising, single point] | –

More compounds

Compound | cell number change [%] | AC50 [1] | AC50 [2]
CCn1c(NC(=O)c2cccs2)c(-c2cccs2)c(=O)c2ccccc21 | 32.4 | – | 13 µM [rising, partial curve, poor fit]
CS(=O)(=O)N(CC(=O)Nc1ccc(S(=O)(=O)N2CCCC2)cc1)c1ccccc1 | -34.4 | 0.103 µM [falling, full curve, poor fit] | 29.1 µM [falling, single point]
COC(=O)c1ccc(CO/N=C/c2ccc(OC)cc2OC)cc1 | 7.59 | 8.2 µM [rising, partial curve, poor fit] | –
COCCOC(=O)C1=C(C)NC(=O)NC1c1c(F)cccc1Cl (configuration not stated) | -16.5 | 0.366 µM [rising, full curve, poor fit] | –
CN1CCN(CC(=O)NN(Cc2ccccc2)c2ccccc2)CC1 | -16.2 | 4.11 µM [falling, full curve] | –
CCOc1ccc(C(=O)NCC(=O)OCc2c(F)cccc2Cl)cc1 | -1.18 | 0.366 µM [rising, full curve] | –
CSCC[C@H](NC(=O)C1CCN(S(=O)(=O)c2ccc(C)cc2)CC1)C(=O)NCC1CCCO1 (some centres not stated) | 37.1 | 0.146 µM [falling, full curve, poor fit] | 0.0058 µM [rising, full curve, poor fit]
COc1ccc(-n2c(COc3ccc4c(c3)OCO4)nnc2SCC(=O)O)cc1 | -34.8 | – | 16.4 µM [falling, single point]
COc1cc2c(cc1NC(=O)COC(=O)[C@@H](NS(=O)(=O)c1cccc(Cl)c1)C(C)C)oc1ccccc12 | -4.45 | 32.6 µM [falling, single point] | –
Cc1ccc(C2c3[nH]c4ccccc4c3C[C@H]3C(=O)N(c4ccccc4C(=O)N4CCC[C@@H]4C(=O)O)C(=O)N23)cc1 (some centres not stated) | 10.6 | – | –
CCOC(=O)c1c(N)sc2c(OC)c(Br)ccc12 | -70.9 | 18.4 µM [falling, single point] | 16.4 µM [falling, partial curve]
CN(C)C(=O)CSCc1c(Cl)cccc1Cl | 46 | – | 23.1 µM [rising, single point]
CCN1CCN(C(=O)CN(CCc2ccccc2)S(C)(=O)=O)CC1 | -21 | 20.6 µM [falling, partial curve, poor fit] | –
CCOc1ccc(CCNC(=O)c2[nH]c(C)c(C(C)=O)c2CC)cc1OCC | 33.2 | – | 11.6 µM [rising, partial curve]
Cc1ccc(C(=O)N/C(=C\c2cn(C)c3ccccc23)C(=O)NCCCn2ccnc2)cc1 | 4.48 | 0.58 µM [rising, single point] | –
CCOC(=O)[C@H]1[C@H]2COc3ccc(Br)cc3[C@@H]2N2C(=O)c3cc(F)c(F)cc3NC(=O)[C@@]12C | -32.8 | – | 20.6 µM [falling, single point]
Cc1cccn2c(=O)c(C=O)c(N3CCC4(CC3)OCCO4)nc12 | 31.4 | – | –
CN(C)Cc1c(O)c(Cl)cc2c3c(c(=O)oc12)CCCC3 | 16.6 | 1.46 µM [falling, partial curve] | –
